Some entries share one result that the patent states for a list of compounds.
Test system: local microvasculature (forehead)
Assay: Study B: acetylcholine and nitroglycerin micro-patches, laser Doppler flowmetry of forehead perfusion in healthy volunteers
Format: in vivo, human
Settings: pre-study trials
From the text: Mixing was accomplished to achieve a final product that was smooth and free of abrasive particles. Based on trial and error testing, it was elected to pursue testing with acetylcholine chloride powder dissolved in water for placement on an adherent surface (e.g., clear tape). […] This dose is proportional to doses of MIOCHOL-E,™ (that is, a clinically available acetylcholine preparation that is used to produce papillary constriction (miosis) during cataract surgery) that had been tested in preliminary trials. However, the agent used for micro-patches can be superconcentrated compared to the solution used for intraocular injection—made possible because of the small delivery area.
The dry side of the acetylcholine “micro-patch” was adhered to the end of a laser Doppler flowmetry probe (a PF 5010 with Probe Model 407, Perimed, Sweden in accordance with a preferred embodiment) (see FIGS. 1 and 2). A sham drug micro-patch was made in the same way with 0.02-mL of HPLC-grade water instead of acetylcholine solution. […] As detailed below, this delivered as much as 10% of that used to constrict the pupil during cataract surgery Dose-response curve can be assessed with serial dilutions. […]

CC(=O)OCC[N+](C)(C)C.[Cl-] [acetylcholine, acetylcholine chloride]
start of progressive drug-induced rise in flow after probe application: ≥ 30 s

O=[N+]([O-])OCC(CO[N+](=O)[O-])O[N+](=O)[O-] [nitroglycerin]
start of progressive drug-induced rise in flow after probe application: ≥ 30 s

From US9877681B2, ““Micro-patch” for assessment of the local microvasculature and microcirculatory vasoreactivity” (priority 2007, dated 2018)
